Results taken from PubChem BioAssay AID624246 (National Center for Advancing Translational Sciences (NCATS), 2012).
Out of some 370,000 compounds screened, about 100 (0.027%) were called active. The inconclusive results got no clear call from the source; some entries with a clear call stand among them for comparison. Calls follow the shape of the dose curve; as a rule, active = well fitted inhibition curve with a large enough effect in the polarisation, with a control signal flat; inconclusive = small, poorly fitted or top-dose-only effect, or effect the other way, or a change in a side signal; inactive = no such curve, though single readings can be large or run the other way; the % refers to the polarisation. Potencies of inconclusive entries are doubtful fits and often do not repeat. “Side channel” marks fits to a control or component signal instead of the main read-out.
For FP activity, negative = inhibition in this document: % of control where 0% means no effect.
Potency is read from the fitted curve at half-maximal effect.

Chains of the proteins cited; added tags and fusions are not shown.
UniProt P11308, whole entry, looked up: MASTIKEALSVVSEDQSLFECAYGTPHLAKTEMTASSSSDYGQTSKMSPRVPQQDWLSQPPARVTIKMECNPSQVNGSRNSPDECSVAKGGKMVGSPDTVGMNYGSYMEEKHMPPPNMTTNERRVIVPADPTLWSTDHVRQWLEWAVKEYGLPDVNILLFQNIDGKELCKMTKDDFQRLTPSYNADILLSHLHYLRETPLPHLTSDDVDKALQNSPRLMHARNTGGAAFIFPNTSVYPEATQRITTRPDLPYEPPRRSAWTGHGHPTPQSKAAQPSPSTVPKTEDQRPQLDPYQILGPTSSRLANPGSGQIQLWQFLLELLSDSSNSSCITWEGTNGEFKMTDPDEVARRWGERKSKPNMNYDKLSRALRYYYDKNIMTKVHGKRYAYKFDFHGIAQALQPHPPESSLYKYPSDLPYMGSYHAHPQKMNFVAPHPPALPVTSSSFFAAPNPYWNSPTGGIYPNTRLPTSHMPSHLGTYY

Each compound was assayed against Transcriptional regulator ERG (Homo sapiens) (UniProt P11308) (assay: qHTS for Small Molecule Inhibitors of the ERG Ets/DNA interaction). Details: fluorescence polarization, His-ERG Ets domain / labelled DNA; FP activity, negative = inhibition: at 76.9 µM (top of the series).
In short: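 His-tagged ERG Ets domain (1 uM in the protein solution; 300mM KCl, 50mM Tris-HCl, 1mM EDTA, 1mM DTT, pH 7.5) received compound, then a probe mix of 5 nM fluorescein-DNA and 100nM Texas-615-DNA. Fluorescence polarization was read for both dyes.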
In the case of `COc1cccc(-c2nnc(NC(=O)C(C)C)o2)c1`, the Potency is reported as inconclusive: 11.2 µM [inhibitor, single point]. In the case of `Cc1csc(NC(=O)CSc2nnc(NC(=O)COc3ccc(Cl)cc3)s2)n1`, the Potency is reported as inconclusive: 31.6 µM [inhibitor, partial curve, poor fit]. With `CCOc1ccc(N2CC(NC(=O)C3CC3)CC2=O)cc1` (centres undefined) the “FP activity, negative = inhibition” value was inactive: -2.27%. In the case of `O=C(COc1ccccc1Cl)Nc1ccc(CN2CCCCC2)cc1`, the Potency is reported as inconclusive: 31.6 µM [inhibitor, single point]. With `O=C(Cn1nc2ccccc2n1)N/N=C/c1cc([N+](=O)[O-])ccc1O` the “FP activity, negative = inhibition” value was inactive: 14%. For `Cc1ccc(OCCC(=O)OCC(=O)NC(=O)NC2CCCCC2)cc1`, the “FP activity, negative = inhibition” value was inactive: 12.2%. `COc1ccccc1C(CCNS(=O)(=O)c1ccc(C)cc1)c1ccco1` (centres undefined) was tested, and the “FP activity, negative = inhibition” value was inactive: -4.62%. `C(=N\Nc1nc2ccccc2[nH]1)/c1ccc2ncccc2c1` was tested, and the Potency was inconclusive: 31.6 µM [quencher, side channel, single point]. In the case of `O=C(CNC(=O)c1ccccc1Cl)OCC(=O)N1CCc2ccccc21`, the Potency is reported as inconclusive: 50.1 µM [inhibitor, single point]. For `Cc1cc(C)cc(OCC(=O)Nc2ccc(N3CCOCC3)cc2N2CCOCC2)c1`, the Potency was active: 28.2 µM. In the case of `Cc1ccccc1C(=O)NCCCc1ccccc1`, the Potency is reported as inconclusive: 3.55 µM [inhibitor, partial curve, poor fit]. For `Cc1ccc(C2=NN(C(=O)c3ccco3)C(O)(C(F)(F)F)C2)cc1` (centres undefined), the “FP activity, negative = inhibition” value was inactive: -1.72%. In the case of `COCCNC(=O)c1c(N)n(/N=C/c2cccs2)c2nc3ccccc3nc12`, the Potency is reported as inconclusive: 3.16 µM [quencher, side channel, full curve, poor fit]. For `Cc1ccc(NC(=O)CN(C)S(=O)(=O)c2cccc3nsnc23)c(C)c1`, the Potency was inconclusive: 50.1 µM [quencher, side channel, single point]. With `CC(=O)NC(Cc1ccccc1)C(=O)NC1CCN(C(=O)c2ccc([N+](=O)[O-])cc2)CC1` (centres undefined) the Potency was inconclusive: 25.1 µM [inhibitor, partial curve, poor fit]. `CCN1CCN(c2cc(N3CCN(C(=O)c4ccco4)CC3)c3c4c(onc24)-c2ccccc2C3=O)CC1` was tested, and the “FP activity, negative = inhibition” value was inactive: 117%. `CCCN(C(=O)c1nn(-c2ccc(C)cc2)c(=O)c2c1c1ccccc1n2C)c1ccccc1C` was tested, and the Potency was inconclusive: 100 µM [inhibitor, single point]. `S=c1[nH]nc(Cc2cccs2)n1-c1cccc2ccccc12` was tested, and the Potency was inconclusive: 7.08 µM [quencher, side channel, single point]. `Cc1cc2cc(CNC(=O)Nc3cccc(Cl)c3)ccc2n1C` was tested, and the Potency was inconclusive: 35.5 µM [inhibitor, partial curve, poor fit]. With `CCOC(=O)c1cccc(NS(=O)(=O)c2c(C)nc3sc(C)cn3c2=O)c1` the “FP activity, negative = inhibition” value was inactive: 7.8%. With `CCCCCCCCn1c(N2CCN(c3cccc(Cl)c3)CC2)nc2c1c(=O)[nH]c(=O)n2C` the “FP activity, negative = inhibition” value was inactive: 4.22%. In the case of `CN(CCCCOc1ccc(F)cc1)Cc1ccccc1`, the “FP activity, negative = inhibition” value is reported as inactive: -0.619%. `Cc1ccc(CN2CC(C(=O)Nc3cccc(S(=O)(=O)N4CCCCC4)c3)CC2=O)cc1` (centres undefined) was tested, and the Potency was inconclusive: 11.2 µM [quencher, side channel, single point]. For `O=[N+]([O-])c1ncccc1OCc1ccc(-c2ccccc2)cc1`, the Potency was inconclusive: 1.12 µM [inhibitor, full curve, poor fit]. `Cc1ccc(NC(=O)c2ccc(Cn3cc([N+](=O)[O-])cn3)cc2)c(C)c1` was tested, and the Potency was inconclusive: 50.1 µM [inhibitor, single point]. For `N=c1c2c(n(Cc3ccc(Cl)cc3)c3c1CCC3)CCC2`, the “FP activity, negative = inhibition” value was inactive: 4.74%. `CCN1CCN(c2ccc(NC(=O)CCc3c(C)nc4c(-c5ccccc5)c(C)nn4c3C)cc2)CC1` was tested, and the “FP activity, negative = inhibition” value was inactive: 14.1%. With `O=C(NCc1ccc(Cl)cc1)c1cccc(S(=O)(=O)N2CCCC2)c1` the “FP activity, negative = inhibition” value was inactive: 2.37%. In the case of `CCN(CC)c1ccc2cc(-c3nc(-c4cc(OC)c(OC)c(OC)c4)no3)c(=O)oc2c1`, the Potency is reported as inconclusive: 31.6 µM [inhibitor, single point]. In the case of `COc1ccc(/C=C/C(=O)Nc2ccc3nc(N4CCCCC4)cc(C)c3c2)cc1OC`, the Potency is reported as inconclusive: 25.1 µM [quencher, side channel, partial curve, poor fit]. `CC1=Nc2ccc(C)cc2/C1=C/c1c(N)n2oc(C)cc2nc1=O` was tested, and the Potency was inconclusive: 31.6 µM [fluorescent, side channel, single point]. For `Cc1ccc(S(=O)(=O)NCC(=O)Nc2ccc(C(F)(F)F)cc2)cc1`, the “FP activity, negative = inhibition” value was inactive: -1.91%. For `CCOc1ccc(-c2cc(C(=O)OC)[nH]n2)cc1`, the Potency was inconclusive: 50.1 µM [inhibitor, single point]. `O=C(NC(=S)NNC(=O)c1ccccc1O)c1ccc(F)cc1` was tested, and the “FP activity, negative = inhibition” value was inactive: 5.17%. In the case of `CC1(C)c2ccccc2N2CC(=O)N(CC(N)=O)C21C` (centres undefined), the Potency is reported as inconclusive: 28.2 µM [fluorescent, side channel, partial curve]. `Cc1ccc(NC(=O)Nc2ccc(F)cc2)cc1Cl` was tested, and the Potency was inconclusive: 10 µM [inhibitor, single point]. With `S=C(NCC1(c2ccccc2)CCCC1)Nc1ccccc1` the Potency was inconclusive: 50.1 µM [inhibitor, single point]. With `CCn1c(NCc2ccc(N(C)C)cc2)nc2ccccc21` the “FP activity, negative = inhibition” value was inactive: -0.956%. In the case of `Cc1ccc(NC(=S)Nc2ccc3nc(-c4ccccn4)c(-c4ccccn4)nc3c2)cc1C`, the “FP activity, negative = inhibition” value is reported as inactive: -5.94%. For `CCOC(=O)C1=C(C)N(C[C@@H]2CC[C@@H](Cc3ccc(-c4ccccc4)cc3)O2)C(=O)NC1c1ccc([N+](=O)[O-])cc1` (some centres undefined), the Potency was inconclusive: 6.31 µM [inhibitor, single point]. `Oc1ccccc1/C=N/Nc1nn[nH]n1` was tested, and the “FP activity, negative = inhibition” value was inactive: 10.5%. In the case of `CCOC(=O)c1c(-c2ccccc2)csc1NC(=O)c1cc(-c2ccc(C)c(F)c2)on1`, the Potency is reported as inconclusive: 100 µM [inhibitor, single point]. In the case of `CCCCNC(=O)c1sc(=S)n2c1[nH]c(=O)c1ccccc12`, the Potency is reported as inconclusive: 31.6 µM [quencher, partial curve, poor fit]. For `COC(=O)c1ccc(NC(=O)C(=O)NCCc2csc(-c3ccc(C(F)(F)F)cc3)n2)cc1`, the “FP activity, negative = inhibition” value was inactive: -2.8%.
